Laboratory results published in the supplement of paper PMC12823440, “Inhibitors supercharge kinase turnover through native proteolytic circuits” (Nature, 2025).
Structures can show the parent of a compound that is named as a salt. The list shows a part of the results. The calls rarely recur for the same compound in another form.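 In K562 cells expressing nanoluciferase-fused kinases, luminescence was recorded at 4 h intervals between 2 and 18 h, normalized as percent of control with DMSO at 100% and a positive control at 0%. A significant (2 sigma) signal drop marks a time point as decreased. The authors' rule for a hit is not shown and takes in more than the number of time points.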

Amino acid sequences for entries named in this document (tags omitted).
UniProt P07947, whole entry, looked up: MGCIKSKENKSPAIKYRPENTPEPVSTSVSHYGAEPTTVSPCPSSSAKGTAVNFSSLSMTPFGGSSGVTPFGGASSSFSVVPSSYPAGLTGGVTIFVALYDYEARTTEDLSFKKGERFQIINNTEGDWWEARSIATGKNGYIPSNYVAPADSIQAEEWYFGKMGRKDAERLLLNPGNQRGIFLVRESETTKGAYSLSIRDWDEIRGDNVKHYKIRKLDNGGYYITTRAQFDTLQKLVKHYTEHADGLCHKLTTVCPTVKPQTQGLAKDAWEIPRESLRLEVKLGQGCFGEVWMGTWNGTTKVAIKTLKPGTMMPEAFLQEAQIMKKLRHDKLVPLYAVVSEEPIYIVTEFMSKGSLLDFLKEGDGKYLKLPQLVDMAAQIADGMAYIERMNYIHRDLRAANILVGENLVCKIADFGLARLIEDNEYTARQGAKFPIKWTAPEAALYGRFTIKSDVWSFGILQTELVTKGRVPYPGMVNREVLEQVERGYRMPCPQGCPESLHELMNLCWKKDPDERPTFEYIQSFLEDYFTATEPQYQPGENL

Each compound was assayed against YES1 (UniProt P07947) (assay: number of time points (of 5) at which kinase-Nluc abundance scored as decreased, DMSO-normalised (count); higher = more persistent destabilization). Settings: K562; 2-18 h.

SMILES | number of time points
O=C(O)c1cc(N(Cc2ccccc2O)Cc2ccccc2O)ccc1O [Lavendustin B] (10 µM) | 0
Cc1ccc2c(Nc3cccc(Cl)c3F)nccc2c1NC(=O)c1csc2c(N)ncnc12 [Belvarafenib] (10 µM) | 0
Cn1cc(-c2cnc3cnn(S(=O)(=O)c4cnc5ccc(-c6cnn(C)c6)cn45)c3c2)cn1 [Glumetinib] (10 µM) | 0
CNC(=O)c1ccccc1Oc1nc(Nc2cc(OC)c(OC)c(OC)c2)ncc1Br (2.5 µM) | 0
COc1cc(-c2cn[nH]c2)ccc1C(=O)Nc1ccc2c(c1)CCNCC2 (10 µM) | 0
COCCNc1cc(NC(=O)N2CCCc3cc(CN4CCN(C)CC4=O)c(C=O)nc32)ncc1C#N [Roblitinib] (10 µM) | 0
CC(C)c1cc(/C=C(\C#N)C(=O)NCCCc2ccccc2)cc(C(C)C)c1O (10 µM) | 0
C=CCc1ccc(O)c(-c2ccc(O)c(CC=C)c2)c1 [Honokiol] (10 µM) | 0
CNc1nc(Nc2cn(C(C)(C)C#N)nc2C)ncc1C(F)(F)F (10 µM) | 0
C[C@@H]1CCNC(=O)c2cc3ccc(C(=O)Nc4nc5ccccc5n4CCCN(C)C)cc3n21 (10 µM) | 0
CCc1cncnc1N1CCN(Cc2nc3ccc(C(F)(F)F)cc3[nH]2)CC1 (10 µM) | 0
CCN(CC)CCC(=O)N1N=C(c2c(-c3ccccc3)c3cc(Br)ccc3[nH]c2=O)CC1c1ccc(Br)cc1 (centres undefined) (2.5 µM) | 0
Nc1cccc(-c2cc3c(Oc4cccc(O)c4)ncnc3[nH]2)c1 (10 µM) | 1
CCc1cccc(CC)c1NC(=O)N1Cc2[nH]nc(NC(=O)c3ccc(N4CCN(C)CC4)cc3)c2C1 (2.5 µM) | 1
COc1ccccc1C(=O)/C=C/c1ccccc1C(=O)O (10 µM) | 0
Cc1c(-c2ccc(C(N)=O)c3[nH]c4cc(C(C)(C)O)ccc4c23)cccc1-n1cnc2ccccc2c1=O (2.5 µM) | 0
O=C1NC(=O)/C(=C/c2ccc3nccc(-c4ccncc4)c3c2)S1 (10 µM) | 0
O=[N+]([O-])c1ccc(Nc2nc(N3CCOCC3)nc(N3CCOCC3)n2)cc1 (10 µM) | 0
Cc1cc(C)nc(NS(=O)(=O)c2ccc(NC(=S)NC(=O)COc3ccc(Br)cc3Cl)cc2)n1 (2.5 µM) | 0
CCCNC(=O)Nc1ccc(Oc2ncnc3cc(OC)c(OC)cc23)cc1Cl (2.5 µM) | 0

SMILES | number of time points
CNC(=O)c1cc2c(Oc3ccc(NC(=S)NC(=O)Cc4ccccc4)cc3F)ccnc2cc1OC [TAS-115 mesylate] (10 µM) | 2
Cn1cc2cc(C(F)(F)c3nnc4ccc(-c5cnn(C6CC6)c5)nn34)c(F)cc2n1 [Bozitinib] (10 µM) | 0
COc1cc2ncnc(Nc3ccccc3)c2cc1OC (10 µM) | 0
Cc1cccc(-c2[nH]c(C(C)(C)C)nc2-c2ccc3nccnc3c2)n1 (10 µM) | 0
Oc1cc(O)c2c(c1)OC1(c3ccc(O)c(O)c3)Oc3cc(O)c4c(c3C2C1O)OC(c1ccc(O)c(O)c1)C(O)C4 (centres undefined) [Procyanidin A1] (10 µM) | 0
CC(C)C[C@@H](C(=O)Nc1ccn(C[C@@H](O)CO)n1)N1CC(Oc2ccccc2Cl)=CC1=O [Dorzagliatin] (10 µM) | 0
C=CC(=O)Nc1cc(Nc2nccc(-n3cc(CN(C)C)c(-c4ccccc4)n3)n2)c(OC)cc1N1CCOCC1 [Lazertinib] (10 µM) | 0
CC(=O)c1c(C)c2cnc(Nc3ccc(N4CCN(C(=O)CNc5cccc6c5C(=O)N(C5CCC(=O)NC5=O)C6=O)CC4)cn3)nc2n(C2CCCC2)c1=O (centres undefined) (10 µM) | 0
CC(C)(C)n1nc(Cc2ccccc2O)c2c(N)ncnc21 (10 µM) | 0
c1ccc(-c2nc(=NCCN3CCOCC3)sn2-c2ccccc2)cc1 [VP3.15 (dihydrobromide)] (10 µM) | 0
NC(=O)N1CCC(CC(=O)N2CCC([C@H]3c4ncc(Br)cc4CCc4cc(Cl)cc(Br)c43)CC2)CC1 [Lonafarnib] (2.5 µM) | 0
O=c1cc(-c2cccc3c2Sc2ccccc2S3)oc(N2CCOCC2)c1 (10 µM) | 0
CN1CC[C@@H](c2c(O)cc(O)c3c(=O)cc(-c4ccc(C(F)(F)F)cc4Cl)oc23)[C@@H]1CO [Voruciclib (hydrochloride)] (10 µM) | 0
CC(=O)N1CCC(c2cc(-c3ccc(NC(=O)c4cccn(-c5ccc(F)cc5)c4=O)cc3F)c3c(N)ncnn23)CC1 (0.5 µM) | 0
CC(C)(C[C@H](N)C(=O)O)C(F)F [NV-5138 (hydrochloride)] (10 µM) | 0
CC/C(=N\NC(=O)c1ccnc(NCCCN2CCOCC2)c1)c1ccc(Cl)cc1O (2.5 µM) | 0
CC(C)CNc1ccnc(NCc2csc(-c3ccccc3)n2)n1 [KHS101 hydrochloride] (2.5 µM) | 0
Nc1nccc(Oc2ccc(NC(=O)c3c[nH]cc(-c4ccc(F)cc4)c3=O)cc2F)c1Cl (10 µM) | 1
Cc1nc(-c2cnn(C)c2)nc2c1[nH]c1ncc(-c3ccc(N4CCN(C)CC4)cc3)cc12 [GNE 220 (hydrochloride)] (10 µM) | 0

Reprinted from the results shown (three entries):
SMILES | number of time points
CC(C)(C[C@H](N)C(=O)O)C(F)F [NV-5138 (hydrochloride)] (10 µM) | 0
CC/C(=N\NC(=O)c1ccnc(NCCCN2CCOCC2)c1)c1ccc(Cl)cc1O (2.5 µM) | 0
CC(C)CNc1ccnc(NCc2csc(-c3ccccc3)n2)n1 [KHS101 hydrochloride] (2.5 µM) | 0
